Results deposited as PubChem BioAssay AID1224826 (NIAID, 2016).

- Purpose: 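Knock-downs that raise or lower Tnf reporter signal after endotoxin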 (primary screen)
- Cells: RAW264.7 G9 macrophages from mouse bearing reporters for p65 (GFP) and the Tnf promoter (mCherry)
- Reagent: siRNA pool against mouse genes, 100 nM
- Time to read-out: 16 h of LPS stimulation, after 2 days of siRNA transfection
- Conditions: bacterial lipopolysaccharide (Salmonella minnesota R595), 10 ng/ml
- Detection: 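Nuclear mCherry signal of the Tnf promoter reporter measured by imaging after background removal, scaled to each plate median and turned into robust z-scores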
- Reading the numbers: Tnf reporter robust z-score: higher = stronger Tnf promoter reporter signal after LPS; Tnf reporter intensity: higher = stronger Tnf promoter reporter signal
- Rule for the call: 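Called active when robust z-score is at most -1.3, matching the median of the Tlr4 knock-down control, or over 3; control wells and wells with under 50 cells never active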
- Calls: active = Tnf reporter clearly lowered or raised; inactive = no clear change in Tnf reporter
In all, the deposit lists about 17,000 reagents; this is an unselected part. In the full data, about 1,110 (6.6%) are marked active. 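Active means lowered or raised reporter signal; replicate intensities are raw and not normalised per plate.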 Unmarked entries are inactive.

Target gene	Tnf reporter robust z-score	fewer than 50 cells in well	Tnf reporter intensity, replicate 1	Tnf reporter intensity, replicate 2
Il12rb1 (interleukin 12 receptor, beta 1)	0.29	enough cells in well	261	207
Tle6 (transducin-like enhancer of split 6)	0.96	enough cells in well	154	115
Sp2 (Sp2 transcription factor)	-0.15	enough cells in well	242	223
Cdk16 (cyclin dependent kinase 16)	0.16	enough cells in well	165	209
Pcdhga8 (protocadherin gamma subfamily A, 8)	0.83	enough cells in well	196	163
Or1e23 (olfactory receptor family 1 subfamily E member 23)	0.16	enough cells in well	194	149
Ppwd1 (peptidylprolyl isomerase domain and WD repeat containing 1)		fewer than 50 cells per well; well left out of calls	125	92
Cux1 (cut-like homeobox 1)	1.45	enough cells in well	361	291
Ptch2 (patched 2)	1.06	enough cells in well	380	221
Sec22b (SEC22 homolog B, vesicle trafficking protein)	-0.83	enough cells in well	195	159
Gm5069 (predicted pseudogene 5069)	0.38	enough cells in well	216	164
Six3 (sine oculis-related homeobox 3)	0.81	enough cells in well	357	272
Nlrp4c (NLR family, pyrin domain containing 4C)	0.56	enough cells in well	141	163
Rab22a (RAB22A, member RAS oncogene family)	-0.45	enough cells in well	260	175
Or2y1b (olfactory receptor family 2 subfamily Y member 1B)	2.97	enough cells in well	346	324
Ppp1r10 (protein phosphatase 1, regulatory subunit 10)	-1.03	enough cells in well	194	96.4
Hoxb8 (homeobox B8)	1.84	enough cells in well	424	249
Slx1b (structure-specific endonuclease subunit SLX1B)	0.3	enough cells in well	250	78.1
Rnf17 (ring finger protein 17)	0.83	enough cells in well	171	156
Ugt8a (UDP galactosyltransferase 8A)	0.56	enough cells in well	300	242
Gemin5 (gem nuclear organelle associated protein 5)	0.47	enough cells in well	257	178
Tpr (translocated promoter region, nuclear basket protein)	-1.71 (active)	enough cells in well	101	92.1
A930002I21Rik (RIKEN cDNA A930002I21 gene)	1.55	enough cells in well	254	241
Nme6 (NME/NM23 nucleoside diphosphate kinase 6)	-0.23	enough cells in well	213	119
Fmnl1 (formin-like 1)	-0.02	enough cells in well	251	132
Wnt5b (WNT family member 5B)	-0.82	enough cells in well	137	201
Ppp5c (protein phosphatase 5, catalytic subunit)	-1.75 (active)	enough cells in well	118	64.3
4930555G01Rik (RIKEN cDNA 4930555G01 gene)		fewer than 50 cells per well; well left out of calls	128	36.5
Topors (topoisomerase I binding, arginine/serine-rich)	-0.46	enough cells in well	190	117
Def6 (differentially expressed in FDCP 6)	0.01	enough cells in well	167	180
Afap1l2 (actin filament associated protein 1-like 2)	0.17	enough cells in well	176	179
Or4c31 (olfactory receptor family 4 subfamily C member 31)	-0.85	enough cells in well	70.5	159
Defb34 (defensin beta 34)	0.76	enough cells in well	262	182
Sh3bgrl (SH3-binding domain glutamic acid-rich protein like)		fewer than 50 cells per well; well left out of calls	182	34.4
Nepn (nephrocan)	1.12	enough cells in well	256	191
Atp10d (ATPase, class V, type 10D)	0.57	enough cells in well	237	164
Golim4 (golgi integral membrane protein 4)	-0.01	enough cells in well	251	159
4932415M13Rik (RIKEN cDNA 4932415M13 gene)		fewer than 50 cells per well; well left out of calls	387	138
Gpi1 (glucose-6-phosphate isomerase 1)	-0.44	enough cells in well	156	202
Fau (FAU ubiquitin like and ribosomal protein S30 fusion)	-1.55 (active)	enough cells in well	110	110

Called active, of those listed so far:
Target gene	Tnf reporter robust z-score	fewer than 50 cells in well	Tnf reporter intensity, replicate 1	Tnf reporter intensity, replicate 2
Tpr (translocated promoter region, nuclear basket protein)	-1.71 (active)	enough cells in well	101	92.1
Ppp5c (protein phosphatase 5, catalytic subunit)	-1.75 (active)	enough cells in well	118	64.3
Fau (FAU ubiquitin like and ribosomal protein S30 fusion)	-1.55 (active)	enough cells in well	110	110
